Paper PMC8496196
No constants are given. Whether binding was seen depends on the method and setting. A result given as binding can be weak or reduced; the word gives no strength. For part of these data: Binding seen in cells or lysates may run through a third protein. For part of these data: Tags and fused reporters may be left off the sequences shown.

T1: GFP-MIG-5b (MIG-5 isoform b, full length) (C. elegans) (UniProt Q22227)
T1 sequence: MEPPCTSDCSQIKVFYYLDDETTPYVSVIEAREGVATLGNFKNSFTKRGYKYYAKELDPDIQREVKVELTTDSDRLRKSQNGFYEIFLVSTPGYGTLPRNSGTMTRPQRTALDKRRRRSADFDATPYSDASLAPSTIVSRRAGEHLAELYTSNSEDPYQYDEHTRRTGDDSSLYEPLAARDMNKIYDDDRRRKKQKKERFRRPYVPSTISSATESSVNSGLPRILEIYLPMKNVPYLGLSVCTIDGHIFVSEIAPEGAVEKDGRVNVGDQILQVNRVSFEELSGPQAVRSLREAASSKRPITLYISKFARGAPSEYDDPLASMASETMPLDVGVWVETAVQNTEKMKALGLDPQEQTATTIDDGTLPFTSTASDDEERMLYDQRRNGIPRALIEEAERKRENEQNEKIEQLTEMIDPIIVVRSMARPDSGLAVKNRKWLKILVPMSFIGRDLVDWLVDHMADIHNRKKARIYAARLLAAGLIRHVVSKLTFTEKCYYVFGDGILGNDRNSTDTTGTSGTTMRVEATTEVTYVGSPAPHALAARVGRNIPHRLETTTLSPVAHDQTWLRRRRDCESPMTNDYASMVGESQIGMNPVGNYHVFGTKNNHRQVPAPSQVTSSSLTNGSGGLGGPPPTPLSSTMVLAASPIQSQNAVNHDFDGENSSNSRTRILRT

T2: GFP-MIG-5b(311-666) (C. elegans) (UniProt Q22227)
T2 sequence: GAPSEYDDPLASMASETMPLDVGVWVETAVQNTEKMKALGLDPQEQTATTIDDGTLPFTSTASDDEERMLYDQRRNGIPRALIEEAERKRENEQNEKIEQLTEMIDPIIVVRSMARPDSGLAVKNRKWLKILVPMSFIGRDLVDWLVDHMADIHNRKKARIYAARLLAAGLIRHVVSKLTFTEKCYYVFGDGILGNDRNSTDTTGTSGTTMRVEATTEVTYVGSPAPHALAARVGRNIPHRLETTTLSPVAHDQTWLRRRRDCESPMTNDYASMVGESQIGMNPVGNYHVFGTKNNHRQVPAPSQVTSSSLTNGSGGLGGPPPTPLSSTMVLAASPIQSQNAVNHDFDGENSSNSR

B1: MIG-5 isoform b fragment (311-666 aa), yeast two-hybrid prey (domain or fragment, UniProt Q22227 311-666)
chain: T2 sequence

Columns and labels:
[1] = target: T1, GFP-MIG-5b (MIG-5 isoform b, full length) (C. elegans); experiment: co-IP; COS-7 cells cotransfected; lysed in RIPA buffer; IP with anti-GFP antibody on Dynabeads protein G, 2 h at 4°C; immunoblot with anti-FLAG
[2] = target: T2, GFP-MIG-5b(311-666) (C. elegans); experiment: as above
[3] = target: kinase-negative CDK-14(K89R), yeast two-hybrid bait (C. elegans); experiment: two-hybrid; yeast two-hybrid screen with kinase-negative CDK-14(K89R) as bait

Row | binding [1] | binding [2] | binding [3] | Molecule
1 | binds | binds |  | 3xFLAG-CDK-14 (C. elegans) (enzyme)
2 |  |  | binds | B1
